# Data published in patent US20200282003A1, “MITOCHONDRIAL-TARGETED AN[…] AGAINST MECHANICAL VENTILATION-INDUCED DIAPHRAGM DYSFUNCTION AND SKELETAL MUSCLE ATROPHY” (Cornell University, priority 2010, published 2020).
# Part of at least one peptide drawing is inferred or uncertain, most often the ends. Square brackets hold non-standard residues; d marks the D form. Peptide text beside a SMILES is read from it. Dmt = Cc1cc(O)cc(C)c1C[C@H](N)C(=O)O
# Legend:
# diaphragm mitochondria [1] = assay: Diaphragm mitochondrial respiratory function, awake spontaneously breathing rats; assay type: in vivo, rat; conditions: pyruvate/malate, mean ± SEM
# caspase-3 [2] = assay: Caspase-3 protease activity in muscle of hindlimb casted mice; assay type: in vivo, mouse
# actin = assay: Actin abundance in diaphragm as index of proteolysis after prolonged MV; assay type: in vivo, rat; conditions: rats, FIG. 8
# [3] = tested on: soleus and plantaris muscle; assay: Muscle weight and fiber cross-sectional area in hindlimb casted mice; assay type: in vivo, mouse
# diaphragm muscle fibers = assay: Diaphragm fiber cross-sectional area in awake, spontaneously breathing rats; assay type: in vivo, rat; conditions: for Fiber CSA: mean ± SEM
# [4] = tested on: soleus and plantaris muscle mitochondria; assay: Mitochondrial respiration in permeabilized fibers, normal mobile mice; assay type: in vivo, mouse
# diaphragm [5] = assay: In vitro diaphragmatic force-frequency response after prolonged MV; assay type: in vivo, rat; conditions: rats, FIG. 3
# [6] = tested on: 4-HNE-conjugated cytosolic proteins and protein carbonyls in myofibrillar proteins; assay: Oxidatively modified proteins in diaphragm of mechanically ventilated rats; assay type: in vivo, rat; conditions: 12 h MV
# diaphragm [7] = assay: In vitro diaphragmatic force-frequency response, awake spontaneously breathing rats; assay type: in vivo, rat; conditions: for Diaphragm force production: mean ± SEM
# diaphragm mitochondria [8] = assay: Diaphragm mitochondrial hydrogen peroxide emission (Amplex Red), awake spontaneously breathing rats; assay type: in vivo, rat; conditions: pyruvate/malate as substrate, mean ± SEM
# 4-hydroxynonenal (4-HNE) = assay: Lipid peroxidation via 4-hydroxynonenal (4-HNE), hindlimb casted mice; assay type: in vivo, mouse
# [9] = tested on: diaphragm muscle myofibers; assay: Diaphragm myofiber cross-sectional area after prolonged MV; assay type: in vivo, rat; conditions: rats, 12 h MV; any fiber type; FIG. 4
# [10] = tested on: soleus and plantaris muscle; assay: Muscle weight and fiber size in normal, mobile mice; assay type: in vivo, mouse
# caspase-12 = assay: Caspase-12 protease activity in muscle of hindlimb casted mice; assay type: in vivo, mouse
# [11] = tested on: soleus and plantaris muscle mitochondria; assay: Mitochondrial respiration in permeabilized fibers, hindlimb casted mice; assay type: in vivo, mouse; conditions: casting for 7 days, SS-31 1.5 mg/kg daily s.c.
# calpain-1 = assay: Calpain-1 protease activity in muscle of hindlimb casted mice; assay type: in vivo, mouse
# caspase-3 [12] = assay: Caspase-3 activation in diaphragm after 12 hours of MV (cleaved caspase-3, SBDP 120 kDa); assay type: in vivo, rat; conditions: rats, 12 h MV; FIGS. 6B, 7B
# diaphragm mitochondria [13] = assay: Hydrogen peroxide release from diaphragm mitochondria of mechanically ventilated rats; assay type: in vivo, rat; conditions: 12 h MV, state 3 and state 4 mitochondrial respiration, FIG. 1
# atrogin-1/MAFbx = assay: Atrogin-1/MAFbx mRNA and protein levels in diaphragm after prolonged MV; assay type: in vivo, rat; conditions: rats, 12 h MV, FIG. 5B
# 20S proteasome = 20S proteasome activity in diaphragm after prolonged MV; assay type: in vivo, rat; conditions: rats, 12 h MV; FIG. 5A
# [14] = tested on: soleus and plantaris muscle mitochondria; assay: Mitochondrial H2O2 production (Amplex Red), hindlimb casted mice; assay type: in vivo, mouse; conditions: casting for 7 days, SS-31 1.5 mg/kg daily s.c.
# diaphragm mitochondria [15] = assay: Respiration of mitochondria isolated from diaphragms of mechanically ventilated rats; assay type: in vivo, rat
# calpain 1 = assay: Calpain activation in diaphragm after 12 hours of MV (active calpain 1, SBDP 145 kDa); assay type: in vivo, rat; conditions: rats, 12 h MV; FIGS. 6A, 7A
# [16] = 12 h MV with SS-31, pyruvate/malate, mean ± SEM
structure (smiles),measurement,setting,value
"Cc1cc(O)cc(C)c1C[C@H](NC(=O)[C@H](N)CCCNC(=N)N)C(=O)N[C@@H](CCCCN)C(=O)N[C@@H](Cc1ccccc1)C(N)=O [SS-31, D-Arg-2′,6′-Dmt-Lys-Phe-NH2] (H-[dR][Dmt]KF-NH2)",State-3 VO2,diaphragm mitochondria [1],237 ± 15 nmoles oxygen/mg protein/minute
same,State-4 VO2,diaphragm mitochondria [1]; different from control at p<0.05,49 ± 2 nmoles oxygen/mg protein/minute
same,"Caspase-3 proteolytic degradation of muscle, soleus",caspase-3 [2]; FIG. 15C,prevented
same,"Caspase-3 proteolytic degradation of muscle, plantaris",caspase-3 [2]; FIG. 18C,prevented
same,Diaphragmatic proteolysis (actin abundance),actin,protected against MV-induced diaphragmatic proteolysis
same,"Fiber cross sectional area loss, soleus","[3]; casted mice, type I, IIa and IIb/x fibers, FIG. 14B",prevented cross sectional area loss
same,"Fiber cross sectional area loss, plantaris","[3]; casted mice, type IIa and IIb/x fibers, FIG. 17B",prevented cross sectional area loss
same,Casting-induced decrease in soleus muscle weight,"[3]; casting for 7 days, SS-31 1.5 mg/kg daily s.c., FIG. 13A",reversed
same,Casting-induced decrease in plantaris muscle weight,"[3]; casting for 7 days, SS-31 1.5 mg/kg daily s.c., FIG. 16A",reversed
same,Fiber CSA,"diaphragm muscle fibers; Type I diaphragm fibers, SS-31 3 mg/kg loading then 0.05 mg/kg/hr over 12 h",1280 ± 44 μm^2
same,Fiber CSA,"diaphragm muscle fibers; Type IIa diaphragm fibers, SS-31 over 12 h",1267 ± 49 μm^2
same,Fiber CSA,"diaphragm muscle fibers; Type IIx/B diaphragm fibers, SS-31 over 12 h",3007 ± 304 μm^2
same,Difference in diaphragmatic fiber CSA versus control,diaphragm muscle fibers; any fiber type,No significant differences
same,"Mitochondrial state 3 respiration, soleus",[4]; FIG. 9C,had no effect
same,"Mitochondrial state 4 respiration, soleus",[4]; FIG. 9D,had no effect
same,"Mitochondrial state 3 respiration, plantaris",[4]; FIG. 11C,had no effect
same,"Mitochondrial state 4 respiration, plantaris",[4]; FIG. 11D,had no effect
same,Diaphragmatic contractile dysfunction,diaphragm [5],successfully prevented
same,4-HNE-conjugated proteins in the diaphragm,[6]; FIG. 2A,protected the diaphragm against the ROS-induced increase
same,Protein carbonyls in myofibrillar proteins of the diaphragm,[6]; FIG. 2B,protected the diaphragm against the ROS-induced increase
same,Difference in diaphragmatic force production versus control,diaphragm [7]; any stimulation frequency,No significant differences
same,Diaphragm force production,diaphragm [7]; stimulation frequency 15 Hz,15.0 ± 0.7 Newtons/cm^2
same,Diaphragm force production,diaphragm [7]; stimulation frequency 30 Hz,21.0 ± 0.3 Newtons/cm^2
same,Diaphragm force production,diaphragm [7]; stimulation frequency 60 Hz,24.2 ± 0.3 Newtons/cm^2
same,Diaphragm force production,diaphragm [7]; stimulation frequency 100 Hz,25.0 ± 0.4 Newtons/cm^2
same,Diaphragm force production,diaphragm [7]; stimulation frequency 160 Hz,24.8 ± 0.3 Newtons/cm^2
same,H2O2 Emission State 3,diaphragm mitochondria [8],54 ± 4.5 pmol/min/mg
same,H2O2 Emission State 4,diaphragm mitochondria [8],652 ± 18 pmol/min/mg
same,"Casting-induced oxidative damage (lipid peroxidation via 4-HNE), soleus",4-hydroxynonenal (4-HNE); FIG. 15A,overcome
same,"Casting-induced oxidative damage (lipid peroxidation via 4-HNE), plantaris",4-hydroxynonenal (4-HNE); FIG. 18A,overcome
same,Difference in diaphragmatic fiber CSA versus CON,[9],no significant differences
same,Soleus muscle weight,[10]; FIG. 9A,had no effect
same,Plantaris muscle weight,[10]; FIG. 11A,had no effect
same,Soleus muscle fiber size (cross sectional area),"[10]; Type I, IIa, IIb/x, FIG. 10A-C",did not have any variable effects
same,Plantaris muscle fiber size (cross sectional area),"[10]; Type IIa, IIb/x, FIG. 12A-B",did not impart any variable effects
same,"Caspase-12 proteolytic degradation of muscle, soleus",caspase-12; FIG. 15D,prevented
same,"Caspase-12 proteolytic degradation of muscle, plantaris",caspase-12; FIG. 18D,prevented
same,"Casting-induced decrease in RCR, soleus",[11]; FIG. 13B,reversed
same,"Casting-induced decrease in mitochondrial state 3 respiration, soleus",[11]; FIG. 13C,reversed
same,"Casting-induced decrease in RCR, plantaris",[11]; FIG. 16B,reversed
same,"Casting-induced decrease in mitochondrial state 4 respiration, plantaris",[11]; FIG. 16D,reversed
same,"Calpain-1 proteolytic degradation of muscle, soleus",calpain-1; FIG. 15B,prevented
same,"Calpain-1 proteolytic degradation of muscle, plantaris",calpain-1; FIG. 18B,prevented
same,Activation of caspase-3 in the diaphragm,caspase-3 [12],protected the diaphragm against the activation
same,Diaphragmatic mitochondrial H2O2 release,diaphragm mitochondria [13],prevented the MV-induced increase
same,Atrogin-1/MAFbx protein levels in the diaphragm,atrogin-1/MAFbx,significantly blunted the MV-induced increase
same,Atrogin-1/MAFbx mRNA levels in the diaphragm,atrogin-1/MAFbx; both MV groups,significant increase
same,20S proteasome activity in the diaphragm,20S proteasome,prevented the MV-induced increase
same,"Casting-induced increase in mitochondrial H2O2 production, soleus",[14]; FIG. 14A,prevented
same,"Casting-induced increase in mitochondrial H2O2 production, plantaris",[14]; FIG. 17A,prevented
same,State-3 VO2,diaphragm mitochondria [15]; [16],193.1 ± 9 nmoles oxygen/mg protein/minute
same,State-4 VO2,diaphragm mitochondria [15]; [16],42.4 ± 3 nmoles oxygen/mg protein/minute
same,Diaphragmatic mitochondrial uncoupling,diaphragm mitochondria [15]; prolonged MV,successful in averting diaphragmatic mitochondrial uncoupling
same,Activation of calpain in the diaphragm,calpain 1,protected the diaphragm against the activation
